The results in this text go back to paper PMC6570896.

Sequences of proteins named here, by UniProt entry; tags and fusion partners are left off. A change or cut given only in a name is not applied to a line headed by its entry.
UniProt Q9CAQ8: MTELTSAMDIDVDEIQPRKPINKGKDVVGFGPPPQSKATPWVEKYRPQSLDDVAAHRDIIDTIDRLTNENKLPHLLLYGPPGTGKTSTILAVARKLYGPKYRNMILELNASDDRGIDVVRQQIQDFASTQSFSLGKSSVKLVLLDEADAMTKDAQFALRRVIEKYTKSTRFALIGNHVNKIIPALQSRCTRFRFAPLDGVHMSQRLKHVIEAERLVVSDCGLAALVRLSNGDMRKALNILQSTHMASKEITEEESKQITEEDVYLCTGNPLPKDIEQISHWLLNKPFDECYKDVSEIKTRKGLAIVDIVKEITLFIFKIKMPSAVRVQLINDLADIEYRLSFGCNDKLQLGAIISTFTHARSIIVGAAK
UniProt Q8VXX4: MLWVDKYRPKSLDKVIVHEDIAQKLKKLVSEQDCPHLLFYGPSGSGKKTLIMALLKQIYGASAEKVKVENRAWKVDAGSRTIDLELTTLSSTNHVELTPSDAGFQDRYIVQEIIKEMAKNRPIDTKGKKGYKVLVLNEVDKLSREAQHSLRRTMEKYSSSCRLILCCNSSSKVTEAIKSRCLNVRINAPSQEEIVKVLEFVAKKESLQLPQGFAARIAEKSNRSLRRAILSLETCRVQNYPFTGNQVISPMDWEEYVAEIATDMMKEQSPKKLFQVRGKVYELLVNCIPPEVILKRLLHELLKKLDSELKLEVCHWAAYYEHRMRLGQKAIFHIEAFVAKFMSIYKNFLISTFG
UniProt Q9ZW35: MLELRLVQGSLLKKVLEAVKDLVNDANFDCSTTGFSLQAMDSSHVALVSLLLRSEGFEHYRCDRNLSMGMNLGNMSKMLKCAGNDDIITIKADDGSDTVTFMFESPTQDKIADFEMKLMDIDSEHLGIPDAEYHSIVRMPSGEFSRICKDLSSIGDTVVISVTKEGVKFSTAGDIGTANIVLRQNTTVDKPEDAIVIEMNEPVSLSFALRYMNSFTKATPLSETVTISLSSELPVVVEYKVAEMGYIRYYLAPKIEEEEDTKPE
UniProt Q9M7Q7: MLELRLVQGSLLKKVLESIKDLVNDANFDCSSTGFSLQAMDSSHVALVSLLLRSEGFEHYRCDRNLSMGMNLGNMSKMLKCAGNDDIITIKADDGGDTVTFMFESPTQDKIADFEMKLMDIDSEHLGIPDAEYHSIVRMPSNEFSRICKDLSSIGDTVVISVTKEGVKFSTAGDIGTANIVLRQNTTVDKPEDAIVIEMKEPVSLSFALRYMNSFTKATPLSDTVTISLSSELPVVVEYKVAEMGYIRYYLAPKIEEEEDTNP
UniProt P17070: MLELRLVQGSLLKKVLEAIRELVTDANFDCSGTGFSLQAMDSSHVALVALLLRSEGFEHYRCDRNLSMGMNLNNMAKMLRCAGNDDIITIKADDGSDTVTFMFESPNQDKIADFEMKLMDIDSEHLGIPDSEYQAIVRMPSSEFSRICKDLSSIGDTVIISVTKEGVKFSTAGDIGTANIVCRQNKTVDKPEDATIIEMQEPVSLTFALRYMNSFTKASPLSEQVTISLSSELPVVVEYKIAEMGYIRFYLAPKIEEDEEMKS

No constants are given. Whether binding was seen depends on the method and setting. For part of these data: A result given as binding can be weak or reduced; the word gives no strength. For part of these data: In cells and extracts the contact can be indirect.

For experiment [1], the target named is AtRFC3-BD (Arabidopsis thaliana) (UniProt Q9CAQ8). Kind of experiment: two-hybrid; Clontech system, yeast AH109; RFC subunits as BD fusions, PCNAs as AD fusions; growth on SD-Leu-Trp-His-Ade, 7 days at 28 °C.
Experiment [2] has as its target AtRFC5-BD (Arabidopsis thaliana) (UniProt Q8VXX4). The description is as above.
The target in experiment [3] is AtRFC3 with deletion of the N-terminus 1 to 247 aa (Arabidopsis thaliana) (UniProt Q9CAQ8). Kind of experiment: split reporter; BiFC: fusions to YFP^N (1-155 aa) and YFP^C (156-239 aa) co-expressed transiently in Nicotiana benthamiana leaf epidermal cells; YFP seen by confocal microscopy.
In experiment [4] the target is AtRFC3 Δ350–369 (Arabidopsis thaliana) (UniProt Q9CAQ8). Described as above.
Experiment [5] addresses AtRFC3-YFP^N (Arabidopsis thaliana) (UniProt Q9CAQ8). The description is as above.
The target in experiment [6] is AtRFC5 Δ335–354 (Arabidopsis thaliana) (UniProt Q8VXX4). The description is as above.
Experiment [7] addresses AtRFC5-YFP^N (Arabidopsis thaliana) (UniProt Q8VXX4). The experiment is described as above.
The target of experiment [8] is truncated AtRFC5 lacking 239 aa in its N-terminal (Arabidopsis thaliana) (UniProt Q8VXX4). The description is as above.

As to AtPCNA2-AD (from UniProt Q9ZW35 1-264), the binding result in experiment [1] and in experiment [2] was “binds” each time.

Turning to AtPCNA1-AD (from UniProt Q9M7Q7 1-263), the binding entry in experiment [1] and in experiment [2] was “binds” each time.

“AtPCNA1-YFP^C (from UniProt Q9M7Q7 1-263)”: the binding result is “binds” in experiment [3]; “no binding” in experiment [4]; “binds” in experiment [5]; “no binding” in experiment [6]; “binds” in experiment [7]; “binds” in experiment [8].

Take “OsPCNA-YFP^C (from UniProt P17070 1-263)”: the binding result in experiment [5] and in experiment [7] was “binds” each time.

With “AtPCNA2-YFP^C (from UniProt Q9ZW35 1-264)”, the binding result is listed as “binds” in experiment [3]; “no binding” in experiment [4]; “binds” in experiment [5]; “no binding” in experiment [6]; “binds” in experiment [7]; “binds” in experiment [8].
